Results deposited as PubChem BioAssay AID1224829 (NIAID, 2016)

Test: 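Genes needed for LPS-driven NF-kappaB p65 nuclear entry in mouse macrophages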 (follow-up of hits)
System: mouse RAW264.7 G9 macrophage reporter cells
Reagents: single siRNA against mouse genes, 100 nM
Duration: 2 days of siRNA knock-down, then 40 min of LPS before fixing
Conditions: LPS (Salmonella minnesota R595) at 10 ng/ml
Measured: 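High-content images after 40 min LPS exposure; GFP-p65 nucleus to surrounding ring signal ratio, normalised to plate median and non-targeting control wells, expressed as z-score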
Reading the numbers: p65 translocation z-score: higher = more nuclear NF-kappaB p65 after LPS
Call rule: 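Active means the replicate-mean z-score lies beyond plus or minus 2, in either direction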
Calls: active = changed p65 translocation (either direction); inactive = no clear change
The deposit covers about 3,800 reagents; this is an unselected part. 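Calls cover raised and lowered translocation; gene median uses one vendor's three siRNAs; qiagen siRNAs acted more weakly than ambion siRNAs.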 The numbers tell different reagents against one gene apart. Not all columns of the deposit are shown. Reagent sequences are not shown.

Alpl #1, siRNA vendor or control pool ambion single siRNA showed p65 translocation z-score, replicate mean -1.8; p65 translocation z-score, replicate 1 = -2.27; inactive. Alpl #2, siRNA vendor or control pool ambion single siRNA gave p65 translocation z-score, replicate mean 2.3; p65 translocation z-score, replicate 1 = 3.63; active. For Alpl #3, siRNA vendor or control pool ambion single siRNA the deposit lists p65 translocation z-score, replicate mean -3.03; p65 translocation z-score, replicate 1 = -2.59; active. For Alpl #4, siRNA vendor or control pool qiagen single siRNA, the values are p65 translocation z-score, replicate mean 0.0664; p65 translocation z-score, replicate 1 = -0.456; inactive. Alpl #5, siRNA vendor or control pool qiagen single siRNA showed p65 translocation z-score, replicate mean 0.72; p65 translocation z-score, replicate 1 = 0.562; inactive. With Alpl #6, siRNA vendor or control pool qiagen single siRNA the deposit lists p65 translocation z-score, replicate mean 0.0272; p65 translocation z-score, replicate 1 = -0.358; inactive.

Entr1 #1, siRNA vendor or control pool ambion single siRNA scored p65 translocation z-score, replicate mean 0.74; p65 translocation z-score, replicate 1 = 0.372; inactive. Entr1 #2, siRNA vendor or control pool ambion single siRNA showed p65 translocation z-score, replicate mean 0.402; p65 translocation z-score, replicate 1 = 0.402; inactive. With Entr1 #3, siRNA vendor or control pool ambion single siRNA, the entry reads p65 translocation z-score, replicate mean 0.496; p65 translocation z-score, replicate 1 = 0.447; inactive. With Entr1 #4, siRNA vendor or control pool qiagen single siRNA, the entry reads p65 translocation z-score, replicate mean -1.66; p65 translocation z-score, replicate 1 = -1.07; inactive. With Entr1 #5, siRNA vendor or control pool qiagen single siRNA the deposit lists p65 translocation z-score, replicate mean 1.72; p65 translocation z-score, replicate 1 = 0.807; inactive. Entr1 #6, siRNA vendor or control pool qiagen single siRNA showed p65 translocation z-score, replicate mean 4.4; p65 translocation z-score, replicate 1 = 3.62; active.

Serpine2 #1, siRNA vendor or control pool ambion single siRNA showed p65 translocation z-score, replicate mean -0.0459; p65 translocation z-score, replicate 1 = 1.67; inactive. With Serpine2 #2, siRNA vendor or control pool ambion single siRNA, the entry reads p65 translocation z-score, replicate mean -0.351; p65 translocation z-score, replicate 1 = -0.417; inactive. With Serpine2 #3, siRNA vendor or control pool ambion single siRNA the deposit lists p65 translocation z-score, replicate mean -8.59; p65 translocation z-score, replicate 1 = -10.5; active. Serpine2 #4, siRNA vendor or control pool qiagen single siRNA showed p65 translocation z-score, replicate mean -0.375; p65 translocation z-score, replicate 1 = 0.894; inactive. With Serpine2 #5, siRNA vendor or control pool qiagen single siRNA the deposit lists p65 translocation z-score, replicate mean 2.58; p65 translocation z-score, replicate 1 = 2.58; active. Serpine2 #6, siRNA vendor or control pool qiagen single siRNA scored p65 translocation z-score, replicate mean -0.225; p65 translocation z-score, replicate 1 = -0.225; inactive.

Rps6kc1 #1, siRNA vendor or control pool ambion single siRNA gave p65 translocation z-score, replicate mean -0.717; p65 translocation z-score, replicate 1 = -0.0401; inactive. For Rps6kc1 #2, siRNA vendor or control pool ambion single siRNA, the entry reads p65 translocation z-score, replicate mean 1.22; p65 translocation z-score, replicate 1 = 0.53; inactive. For Rps6kc1 #3, siRNA vendor or control pool ambion single siRNA the deposit lists p65 translocation z-score, replicate mean 1.46; p65 translocation z-score, replicate 1 = 2.66; inactive. Rps6kc1 #4, siRNA vendor or control pool qiagen single siRNA showed p65 translocation z-score, replicate mean 1.76; p65 translocation z-score, replicate 1 = 0.375; inactive. For Rps6kc1 #5, siRNA vendor or control pool qiagen single siRNA, the entry reads p65 translocation z-score, replicate mean -1.36; p65 translocation z-score, replicate 1 = -2.58; inactive. For Rps6kc1 #6, siRNA vendor or control pool qiagen single siRNA the deposit lists p65 translocation z-score, replicate mean 1.29; p65 translocation z-score, replicate 1 = -0.485; inactive.

Tnfrsf22 #1, siRNA vendor or control pool ambion single siRNA gave p65 translocation z-score, replicate mean -0.659; p65 translocation z-score, replicate 1 = -0.357; inactive. Tnfrsf22 #2, siRNA vendor or control pool ambion single siRNA gave p65 translocation z-score, replicate mean -0.142; p65 translocation z-score, replicate 1 = 0.356; inactive. Tnfrsf22 #3, siRNA vendor or control pool ambion single siRNA scored p65 translocation z-score, replicate mean -3.26; p65 translocation z-score, replicate 1 = -3.09; active. Tnfrsf22 #4, siRNA vendor or control pool qiagen single siRNA showed p65 translocation z-score, replicate mean 0.322; p65 translocation z-score, replicate 1 = -0.966; inactive. With Tnfrsf22 #5, siRNA vendor or control pool qiagen single siRNA, the values are p65 translocation z-score, replicate mean 0.792; p65 translocation z-score, replicate 1 = -0.964; inactive. With Tnfrsf22 #6, siRNA vendor or control pool qiagen single siRNA, the values are p65 translocation z-score, replicate mean 0.613; p65 translocation z-score, replicate 1 = -0.134; inactive.

Entries above called active, once more:
Alpl #2, siRNA vendor or control pool ambion single siRNA → p65 translocation z-score, replicate mean: 2.3; p65 translocation z-score, replicate 1: 3.63; Call: active
Alpl #3, siRNA vendor or control pool ambion single siRNA → p65 translocation z-score, replicate mean: -3.03; p65 translocation z-score, replicate 1: -2.59; Call: active
Entr1 #6, siRNA vendor or control pool qiagen single siRNA → p65 translocation z-score, replicate mean: 4.4; p65 translocation z-score, replicate 1: 3.62; Call: active
Serpine2 #3, siRNA vendor or control pool ambion single siRNA → p65 translocation z-score, replicate mean: -8.59; p65 translocation z-score, replicate 1: -10.5; Call: active
Serpine2 #5, siRNA vendor or control pool qiagen single siRNA → p65 translocation z-score, replicate mean: 2.58; p65 translocation z-score, replicate 1: 2.58; Call: active
Tnfrsf22 #3, siRNA vendor or control pool ambion single siRNA → p65 translocation z-score, replicate mean: -3.26; p65 translocation z-score, replicate 1: -3.09; Call: active
